According to PubChem BioAssay AID1259415 (National Center for Advancing Translational Sciences (NCATS), 2018):
“And” between values parts separate entries of the source, which are not always exact repeats. Equal entries are not always repeated. Among all 410,000 compounds or so, about 18,000 (4.4%) were called active. This list was built around the results that the source calls inconclusive (neither active nor inactive); the mix of calls is not that of the screen. Cut-off read from the data, not from the text of the source: active = activity change below about -60%; inconclusive = no clear call, values can overlap the other calls; inactive = above about -39%.

Assay: qHTS Assay for inhibitors of the human cytomegalovirus (HCMV)
Settings: HFF cells, HCMV-luciferase reporter, 72 h; at 57.5 µM; stronger effect = lower value
How it was run: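 Two-dose cell screen: HFF monolayers treated with compounds and infected with luciferase-expressing HCMV at 1 PFU/cell, 72 h at 37C, then lysed for luciferase measurement.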
% is set by controls: 0 for no effect and ±100 for the full control effect.

Structure (SMILES) | activity change, negative = inhibition
CCN(CC)CC(=O)N1CCCC(C(=O)c2ccccc2OC)C1 (stereo not drawn) | inactive: -28%
CCO[C@H]1OC(C(=O)NCc2ccccc2)=C[C@@H](C(C)(C)C)[C@@H]1CCCO | inactive: 28.7%
COc1ccc(S(=O)(=O)N(Cc2nc(-c3cccc(C)c3)no2)C2CCCCC2)cc1 | inactive: -33.1%
Cc1ccc(C)c(Nc2cc(C)nc3ccccc23)c1 | inconclusive: -43.7%
CCOc1ccc(C(C)NC(=S)NCc2ccc(F)cc2)cc1 (stereo not drawn) | inconclusive: -42.6%
CCc1nc2ccc(C(=O)N(CC)CC(=O)Nc3c(F)cccc3F)cc2nc1CC | inconclusive: -40.8%
O=C(CCn1c(=O)c2cccn2c2ccc(F)cc21)NCc1ccccc1F | inconclusive: -53.3%
C[C@@H]1CN([C@@H](C)CO)C(=O)c2cc(NS(C)(=O)=O)ccc2O[C@H]1CN(C)Cc1ccc(Oc2ccccc2)cc1 | inactive: -39%
CCOC(=O)C1=C[C@@H](C(C)(C)C)N(S(=O)(=O)c2ccc([N+](=O)[O-])cc2)[C@H]1c1ccccc1 | active: -74.6%
COc1cccc(Cn2c(=O)n(-c3cccc(Cl)c3C)c(=O)c3c4c(sc32)CN(C(C)=O)CC4)c1 | inconclusive: -47.9%
O=C(OCc1cc(=O)n2c(n1)sc1ccccc12)c1cccc(O)c1 | inactive: 0.313%
CCOc1ncccc1C(=O)Nc1cc(S(=O)(=O)N2CCCCC2)ccc1Cl | inconclusive: -48.8%
COc1cccc(/C=N/NC(=O)c2nnn(-c3nonc3N)c2-c2cccs2)c1 | inconclusive: -41%
CN(C)c1ccc(CNC(=O)c2cnc(N3CCN(Cc4cccc(C(F)(F)F)c4)C3=O)o2)cc1 | inactive: -13.7%
O=C(c1ccc(Oc2ccc(C(F)(F)F)cc2[N+](=O)[O-])cc1)N1CCOCC1 | active: -82.5%
CC(=O)c1cc2c(s1)-c1cc(F)ccc1OC2 | inactive: 15.6%
CC(=O)N1CCN(c2ccc(NC(=O)c3ccco3)cc2Cl)CC1 | inactive: 46.8%
COc1ccc(-c2csc(CCN3N=C(C)CC3=O)n2)cc1 | inactive: -7.66%
CC1CN(C(=O)COC(=O)c2cc(=O)c3ccccc3o2)CC(C)O1 (stereo not drawn) | inactive: -11.5%
Cc1cccn2cc(-c3cccc(NS(=O)(=O)c4ccc(Cl)c(Cl)c4)c3)nc12 | active: -91.1%
Cc1ccc(Cn2c(O)c(N=O)c3ccccc32)cc1 | inconclusive: -45.1%

Structure (SMILES) | activity change, negative = inhibition
N#CC1=C(S)N(c2ccccc2)C(c2cccs2)NC1=O (stereo not drawn) | inactive: -10.6%
COc1ccc(C(O)(C2CCCCC2)C(CN2CCCC2)c2ccccc2)cc1 (stereo not drawn) | inconclusive: -57.4%
COc1cccc(CNCCSc2nnnn2C)c1OCc1ccc(Cl)cc1Cl | active: -60.6%
CC(=O)N1CCC2(CC1)C/C(=N\NC(=S)Nc1ccc(C)cc1)c1cc(O)ccc1O2 | inconclusive: -46%
COc1cc(/C=C2\SC(=O)N(c3ccc(Cl)cc3)C2=O)cc([N+](=O)[O-])c1O | inconclusive: -43%
CN(C)S(=O)(=O)Oc1ccccc1C(=O)Nc1ccc(F)cc1 | inactive: -18.3%
CC1CCCCC1NC(=O)c1nn(C)c2c1CS(=O)(=O)c1ccccc1-2 (stereo not drawn) | inactive: -33.2%
CCc1cnc2c(c1SCC(=O)Nc1ccc(Cl)cc1)c(=O)n(C)c(=O)n2C | inactive: -9.07%
CC(COc1ccccc1)NC(C)C(O)c1ccc(O)cc1 (stereo not drawn) | inconclusive: -41%
O=c1cc(O)c(-c2cccc(C(F)(F)F)c2)c(Cl)[nH]1 | inactive: -14.8%
COc1ccc([C@@H]2CC=C(C(=O)O)[C@H](c3ccc(Cl)cc3)N2S(=O)(=O)c2ccc(C)cc2)cc1OC | inactive: -21.6%
COc1ccc(Cn2cc(C(=O)c3ccc(OC)cc3)c(=O)c3cc4c(cc32)OCCO4)cc1 | inconclusive: -42.5%
CSCC(=O)N1CCCC(C(=O)c2cc(F)ccc2F)C1 (stereo not drawn) | inconclusive: -51.6%
C=CCNC(=S)NN=C1CCC(c2ccccc2)CC1 (stereo not drawn) | inactive: -38.4%
O=C(CCCc1ccccc1)Nc1cccc([N+](=O)[O-])c1 | inactive: 25.8%
CCC(C(=O)NCC1CCCO1)N(C(=O)c1snc(C(N)=O)c1N)c1ccc(Cl)cc1 (stereo not drawn) | inconclusive: -41.5%
CCOc1ccc(CC2S/C(=N/c3ccccn3)NC2=O)cc1 (stereo not drawn) | inactive: -19.6%
COc1ccc(OCC(=O)NC(=S)Nc2ccc(S(=O)(=O)Nc3cc(OC)nc(OC)n3)cc2)cc1 | inconclusive: -48.2%
O=C(Nc1cc(F)ccc1F)N1CCN(c2ccnc3cc(Cl)ccc23)CC1 | active: -83.5%
CCS(=O)(=O)c1nc2ccccc2n1Cc1ccccc1Cl | active: -67.3%
Cc1ccccc1C(=O)N1CCN(c2ccc(NC(=O)c3ccc4c(c3)OCO4)cc2)CC1 | inactive: -37.9%

Structure (SMILES) | activity change, negative = inhibition
CC(Oc1ccc(F)cc1)C(=O)NN (stereo not drawn) | inactive: 34.2%
CCOC(=O)CC1C(=O)NCCN1Cc1cccc(C(F)(F)F)c1 (stereo not drawn) | inconclusive: -41.1%
COc1ccc(CC(=O)NC(C)c2nnc(SCC(=O)c3ccc(OC)cc3)n2C)cc1 (stereo not drawn) | inconclusive: -51.4%
NC(=O)CC(NC(=O)Cc1cccc2ccccc12)c1ccc(NC2CCC2)c([N+](=O)[O-])c1 (stereo not drawn) | inactive: 3.95%
CCOc1ccc(/C(O)=C2/C(=O)C(=O)N(c3ncccn3)C2c2ccc(C)cc2)cc1 (stereo not drawn) | inactive: 15.7%
O=C(N/N=C/c1cc(Cl)ccc1O)c1ccccc1Br | active: -100%
Cc1ccc(Cc2nc3ccccc3nc2SCC(=O)N2CCN(c3ccccc3F)CC2)cc1 | inconclusive: -41.5%
O=C(CCCCCNC(=O)c1ccccc1Cl)N/N=C/c1ccco1 | inconclusive: -42%
N#Cc1cc(-c2ccccc2)cn(Cc2c(Cl)cccc2Cl)c1=O | inconclusive: -43.4%
C/C(=N/NS(=O)(=O)c1ccc(C(C)(C)C)cc1)c1ccc2c(c1)OCO2 | inactive: 7.89%
COc1ccc(C(=O)COC(=O)CCN2C(=O)C3C4C=CC(C5CC45)C3C2=O)cc1 (stereo not drawn) | inactive: -5.7%
CN(c1ccccc1)S(=O)(=O)c1cccc(NC(=O)c2ccc(=O)[nH]n2)c1 | inconclusive: -41.1%
COC(=O)[C@]1(C)N[C@H](CN(C)S(=O)(=O)c2ccc(-c3ccccc3)cc2)[C@@H]2C(=O)N(C)C(=O)[C@@H]21 | inactive: -2.97%
CCOC(=O)/C=c1\s/c(=C\c2ccc3cc(OC)ccc3c2)c(=O)n1CC(=O)NCc1ccc2c(c1)OCO2 | active: -100%
COc1ccc(NC(=O)c2cccc3ccccc23)cc1 | inactive: 95.2%
O=[N+]([O-])c1cnn(-c2nc(-c3cccs3)cc(C(F)(F)F)n2)c1 | active: -99%
Cc1ccc(CCNC(=O)CCn2c(=O)c3cccn3c3ccc(F)cc32)cc1 | inconclusive: -45.2% and inconclusive: -52.1%
CCN1C(=NCc2ccccc2)N[C@@H](c2ccccc2)[C@H](C(=O)OC)[C@H]1C | inactive: -36.8%
c1cc(SC2CCCCC2)cc(-c2nc3cnccn3c2NC2CCCCC2)c1 | inconclusive: -51.6%
CCc1ccc(CN(C)C(=O)c2cc(COc3cncc(Cl)c3)on2)cc1 | inactive: 3.48%
CN1/C(=C\C(=O)CSc2nnc(N)s2)C(C)(C)c2ccccc21 | inconclusive: -51.4%

Random excerpt: 4 entries already listed.
Structure (SMILES) | activity change, negative = inhibition
CN(c1ccccc1)S(=O)(=O)c1cccc(NC(=O)c2ccc(=O)[nH]n2)c1 | inconclusive: -41.1%
CCN1C(=NCc2ccccc2)N[C@@H](c2ccccc2)[C@H](C(=O)OC)[C@H]1C | inactive: -36.8%
CN1/C(=C\C(=O)CSc2nnc(N)s2)C(C)(C)c2ccccc21 | inconclusive: -51.4%
Cc1ccc(Cc2nc3ccccc3nc2SCC(=O)N2CCN(c3ccccc3F)CC2)cc1 | inconclusive: -41.5%

Next part:

Structure (SMILES) | activity change, negative = inhibition
CCC(=O)c1ccc(OCC(=O)NCC2(N3CCCCC3)CCCCC2)cc1 | inactive: -19.2%
Cc1cccc(-c2cc3nc4c(c(N5CCC6(CC5)OCCO6)n3n2)CCCC4)c1 | inactive: -3.5%
O=S(=O)(/C=C/c1ccccc1)NC1CCCCCC1 | inconclusive: -48.7%
Cc1ccc(S(=O)(=O)N[C@@H](Cc2ccccc2)C(=O)N2CCC(C(=O)N[C@@H](CC(C)C)C(=O)O)CC2)cc1 | inactive: -25.8%
Cc1ccc(Cn2c(=O)n(Cc3nc(-c4ccccc4)no3)c(=O)c3cc4c(cc32)OCO4)cc1 | inactive: -3.37%
CC(C)OC(=O)c1c(F)c(F)c(N2CCOCC2)c(F)c1F | inconclusive: -43%
O=C1CC(N2CCC(n3c(=O)[nH]c4ccccc43)CC2)C(=O)N1Cc1ccccc1 (stereo not drawn) | inactive: -27.8%
Cc1nn(-c2ccc(N3CCCCC3)nn2)c(C)c1CCC(=O)Nc1ccc(F)cc1 | inconclusive: -44.6%
Oc1ccccc1-c1nc(/C=C/c2ccccc2Cl)no1 | inconclusive: -44.5%
CCc1ccc2[nH]c(=O)c(CN(Cc3nnnn3C3CCCC3)C3CCCCC3)cc2c1 | inconclusive: -52.2%
COc1cc2c3nc4n(c(=O)c3n(CC(=O)NCC3CCCO3)c2cc1OC)CCS4 (stereo not drawn) | active: -91.5%
O=C(/C=C/c1ccc(S(=O)(=O)N2CCOCC2)cc1)N1CCN(c2ccccc2)CC1 | inconclusive: -54.8%
O=CC(=O)c1ccccc1 | inactive: 9.68%
COc1ccc(N2CCN(CCOc3ccc4c(C)cc(=O)oc4c3)CC2)cc1 | inconclusive: -56.9%
O=C(CN(C(=O)CCC(=O)Nc1nccs1)c1cccc(C(F)(F)F)c1)NCC1CCCO1 (stereo not drawn) | inactive: 20.8%
C[C@H](NC(=O)c1ncn2c1c(=O)[nH]c1ccc(Br)cc12)c1ccccc1 | inconclusive: -58.9%
NC(=O)CC(NC(=O)c1ccc(Br)cc1)c1ccc(NCc2ccc(F)c(F)c2)c([N+](=O)[O-])c1 (stereo not drawn) | inactive: 11.1%
Cc1cc(C)cc(NC(=S)N2CCN(S(=O)(=O)c3ccccc3)CC2)c1 | inconclusive: -53.8%
COc1ccc(Cc2[nH]n3c(=O)c(Cl)c(C)nc3c2-c2ccccc2)cc1 | inconclusive: -53.6%
COc1ccc(C(=O)Nc2ccc(-c3cc4ccccc4oc3=O)c(C)c2)cc1Br | inactive: -13.7%
